From paper doi:10.1101/341420
Results are given in words; binding and its absence hold for the method and conditions named. In cells and extracts the contact can be indirect. Some entries that bind do so weakly or less than the wild type. One block for each binder: values may come before it.

The chains behind the UniProt entries cited, without tags or fusion partners.
UniProt P15927: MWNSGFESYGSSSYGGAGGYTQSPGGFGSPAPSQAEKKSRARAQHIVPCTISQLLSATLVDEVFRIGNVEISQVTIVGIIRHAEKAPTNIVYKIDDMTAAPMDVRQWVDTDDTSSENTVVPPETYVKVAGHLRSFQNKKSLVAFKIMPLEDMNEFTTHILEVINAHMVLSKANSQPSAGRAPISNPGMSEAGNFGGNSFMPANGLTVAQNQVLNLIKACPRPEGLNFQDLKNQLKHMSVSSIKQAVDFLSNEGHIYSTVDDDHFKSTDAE
UniProt P54132: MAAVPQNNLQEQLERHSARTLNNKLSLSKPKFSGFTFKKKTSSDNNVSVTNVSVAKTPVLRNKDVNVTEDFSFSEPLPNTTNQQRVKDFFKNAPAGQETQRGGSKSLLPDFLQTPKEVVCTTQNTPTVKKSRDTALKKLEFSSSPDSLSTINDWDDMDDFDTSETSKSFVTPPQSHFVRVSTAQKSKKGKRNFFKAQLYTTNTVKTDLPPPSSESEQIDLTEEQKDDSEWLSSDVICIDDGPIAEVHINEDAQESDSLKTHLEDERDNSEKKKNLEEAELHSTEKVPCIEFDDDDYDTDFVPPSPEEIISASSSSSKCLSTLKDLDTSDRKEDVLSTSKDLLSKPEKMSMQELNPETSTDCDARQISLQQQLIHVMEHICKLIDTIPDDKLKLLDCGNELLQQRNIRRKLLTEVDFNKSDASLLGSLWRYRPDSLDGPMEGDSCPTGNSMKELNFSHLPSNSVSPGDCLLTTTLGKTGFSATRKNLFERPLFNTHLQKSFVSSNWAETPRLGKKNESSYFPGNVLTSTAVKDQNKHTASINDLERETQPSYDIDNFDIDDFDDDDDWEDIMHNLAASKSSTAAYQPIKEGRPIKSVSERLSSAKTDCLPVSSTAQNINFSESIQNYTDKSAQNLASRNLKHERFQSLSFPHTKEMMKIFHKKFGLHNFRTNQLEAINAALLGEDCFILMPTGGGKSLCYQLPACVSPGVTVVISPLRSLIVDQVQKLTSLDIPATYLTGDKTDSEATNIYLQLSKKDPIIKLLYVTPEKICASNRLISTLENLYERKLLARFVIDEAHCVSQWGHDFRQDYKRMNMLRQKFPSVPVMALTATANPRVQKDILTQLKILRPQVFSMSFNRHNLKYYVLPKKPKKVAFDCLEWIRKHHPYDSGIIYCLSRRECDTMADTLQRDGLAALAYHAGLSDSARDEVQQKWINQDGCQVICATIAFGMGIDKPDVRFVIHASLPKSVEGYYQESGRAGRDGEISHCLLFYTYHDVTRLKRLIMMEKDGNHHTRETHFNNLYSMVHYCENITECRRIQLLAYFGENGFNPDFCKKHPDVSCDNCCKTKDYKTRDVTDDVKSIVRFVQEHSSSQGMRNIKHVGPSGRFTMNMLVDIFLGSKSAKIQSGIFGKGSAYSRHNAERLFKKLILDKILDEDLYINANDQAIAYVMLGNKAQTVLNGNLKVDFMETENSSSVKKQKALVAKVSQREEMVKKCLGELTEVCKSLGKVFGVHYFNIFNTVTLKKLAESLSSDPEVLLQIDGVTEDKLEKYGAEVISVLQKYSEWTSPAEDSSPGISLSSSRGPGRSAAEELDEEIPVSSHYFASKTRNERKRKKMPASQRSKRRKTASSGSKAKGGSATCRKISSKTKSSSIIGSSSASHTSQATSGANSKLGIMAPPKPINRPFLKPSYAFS

Key:
[1] = biological target: RPA2 (human (endogenous in HeLa and HCT116)) (UniProt P15927); assay: co-IP
[2] = biological target: BLM (human (endogenous in HeLa and HCT116)) (UniProt P54132); assay: co-IP

binding [1]: binds
B1: topoisomerase IIIa (TOP3A) (protein, UniProt Q13472 1-1001)
chain: MIFPVARYALRWLRRPEDRAFSRAAMEMALRGVRKVLCVAEKNDAAKGIADLLSNGRMRRREGLSKFNKIYEFDYHLYGQNVTMVMTSVSGHLLAHDFQMQFRKWQSCNPLVLFEAEIEKYCPENFVDIKKTLERETRQCQALVIWTDCDREGENIGFEIIHVCKAVKPNLQVLRARFSEITPHAVRTACENLTEPDQRVSDAVDVRQELDLRIGAAFTRFQTLRLQRIFPEVLAEQLISYGSCQFPTLGFVVERFKAIQAFVPEIFHRIKVTHDHKDGIVEFNWKRHRLFNHTACLVLYQLCVEDPMATVVEVRSKPKSKWRPQALDTVELEKLASRKLRINAKETMRIAEKLYTQGYISYPRTETNIFPRDLNLTVLVEQQTPDPRWGAFAQSILERGGPTPRNGNKSDQAHPPIHPTKYTNNLQGDEQRLYEFIVRHFLACCSQDAQGQETTVEIDIAQERFVAHGLMILARNYLDVYPYDHWSDKILPVYEQGSHFQPSTVEMVDGETSPPKLLTEADLIALMEKHGIGTDATHAEHIETIKARMYVGLTPDKRFLPGHLGMGLVEGYDSMGYEMSKPDLRAELEADLKLICDGKKDKFVVLRQQVQKYKQVFIEAVAKAKKLDEALAQYFGNGTELAQQEDIYPAMPEPIRKCPQCNKDMVLKTKKNGGFYLSCMGFPECRSAVWLPDSVLEASRDSSVCPVCQPHPVYRLKLKFKRGSLPPTMPLEFVCCIGGCDDTLREILDLRFSGGPPRASQPSGRLQANQSLNRMDNSQHPQPADSRQTGSSKALAQTLPPPTAAGESNSVTCNCGQEAVLLTVRKEGPNRGRQFFKCNGGSCNFFLWADSPNPGAGGPPALAYRPLGASLGCPPGPGIHLGGFGNPGDGSGSGTSCLCSQPSVTRTVQKDGPNKGRQFHTCAKPREQQCGFFQWVDENTAPGTSGAPSWTGDRGRTLESEARSKRPRASSSDMGSTAKKPRKCSLCHQPGHTRPFCPQNR

binding [2]: binds
binding [1]: binds
B2: RMI2 (protein, UniProt Q96E14 1-147)
chain: MAAAADSFSGGPAGVRLPRSPPLKVLAEQLRRDAEGGPGAWRLSRAAAGRGPLDLAAVWMQGRVVMADRGEARLRDPSGDFSVRGLERVPRGRPCLVPGKYVMVMGVVQACSPEPCLQAVKMTDLSDNPIHESMWELEVEDLHRNIP
